In the supplement of paper PMC3334620:
The full ranking holds about 33,000 sequences; the median of “E-score (-0.5 to 0.5)” is about -0.0014, and the highest 2% start at about 0.25. The list shows a part of the results.

The sequences below were run against T1, Cad1 (UniProt P24813) (assay: PBM E-score (8-mer binding enrichment) (E-score (-0.5 to 0.5)); higher = stronger / more preferred TF binding). Conditions: protein concentration: 100 nM; construct: GST-full length.
T1 sequence: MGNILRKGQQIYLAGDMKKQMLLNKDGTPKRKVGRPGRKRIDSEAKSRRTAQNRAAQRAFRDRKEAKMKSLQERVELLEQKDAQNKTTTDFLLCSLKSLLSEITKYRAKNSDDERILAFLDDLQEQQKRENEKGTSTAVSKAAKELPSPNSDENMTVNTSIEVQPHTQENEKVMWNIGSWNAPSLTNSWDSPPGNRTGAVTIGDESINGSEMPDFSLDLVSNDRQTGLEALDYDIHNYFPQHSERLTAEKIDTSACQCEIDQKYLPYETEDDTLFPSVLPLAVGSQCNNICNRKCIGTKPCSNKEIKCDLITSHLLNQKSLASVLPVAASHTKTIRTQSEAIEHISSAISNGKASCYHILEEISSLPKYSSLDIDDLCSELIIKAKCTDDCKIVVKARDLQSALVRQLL
Method: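 Universal 'all 10-mer' protein binding microarrays (Agilent AMADID 015681) probed with GST-tagged S. cerevisiae TFs (full-length or DBD) made by in vitro transcription/translation (PURExpress), about 100-200 nM. Bound TF was detected with fluorescent anti-GST. Each ungapped 8-mer (which stands for itself and its reverse complement) is scored by the PBM enrichment score (E-score), a modified Wilcoxon-Mann-Whitney statistic from -0.5 to +0.5, computed with the Universal PBM Analysis Suite. Scale: above 0.35 generally sequence-specific binding.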

Row | Sequence | PBM E-score
1 | CTCAGATA | 0.197
2 | AATTTACT | 0.0407
3 | TAGGGTCA | -0.11
4 | ACATCGAC | -0.012
5 | AGCAGTGC | -0.0322
6 | TAGGCGGA | 0.112
7 | TTGCGCAA | 0.258
8 | CAACCTTG | -0.0169
9 | CGGTGGGC | -0.102
10 | CGCATTTA | 0.177
11 | CCCAGAGG | -0.372
12 | ATCCCACC | 0.0285
13 | CCCGGACG | -0.307
14 | ATCACCAA | 0.109
15 | AGACCGCC | -0.0452
16 | ATATCCCG | 0.112
17 | AGGCGCAA | 0.0947
18 | TTCCGCAA | 0.123
19 | ATCCGAAG | 0.079
20 | AACTAGCA | 0.0629
21 | GTTGGTCA | 0.241
22 | ACATCCTG | 0.23

Row | Sequence | PBM E-score
23 | AGTAATCG | 0.179
24 | AAACATCT | -0.101
25 | GGTATCCA | 0.135
26 | GCGTTCCC | -0.0561
27 | AGACTGCT | -0.028
28 | AGATCTGC | 0.187
29 | ACTTGATC | 0.119
30 | GGACGTTA | 0.0449
31 | AGCATAAG | 0.131
32 | GTCCTACA | 0.00675
33 | AATCTGTA | 0.107
34 | ATCACATC | 0.128
35 | AACGGAGG | -0.189
36 | AGACGTGC | 0.0476
37 | GCGTAAGA | 0.0299
38 | AGCCTGTA | -0.111
39 | AACTCTGT | 0.0597
40 | CGCCTACC | -0.122
41 | AAAATCCA | 0.0338
42 | GACTACCC | -0.0491
43 | AATAGGCG | 0.133
44 | GCGAACTA | -0.0075

Row | Sequence | PBM E-score
45 | ACCATCAC | 0.00191
46 | GGGTACAA | -0.0485
47 | CGGCAAAG | -0.00304
48 | ACGTTTCA | 0.105
49 | CGACCGGC | 0.133
50 | AGCATTGC | 0.173
51 | ATCTTGGG | -0.0312
52 | AACCTGGC | -0.0321
53 | CGAGATGA | 0.0735
54 | CCCCTGGC | -0.366
55 | CAGTGAAG | -0.104
56 | ACTAATTC | 0.306
57 | CAAGGTGC | 0.0221
58 | GTAGAGTA | -0.00497
59 | GGTCACAA | -0.0946
60 | GACTAATC | 0.362
61 | GTCCCAAC | -0.00293
62 | ATCCATAA | 0.199
63 | AGCATTCA | 0.0215
64 | AAAGGCCC | -0.223
65 | GATGCATC | 0.178
66 | ACATCAGA | 0.0424

Reprinted at random: four entries already listed, in no set order.
Row | Sequence | PBM E-score
40 | CGCCTACC | -0.122
4 | ACATCGAC | -0.012
1 | CTCAGATA | 0.197
42 | GACTACCC | -0.0491

Remaining list, next part.

Row | Sequence | PBM E-score
67 | AGTGATTC | 0.11
68 | ACGGTAAT | -0.0679
69 | AACAATAA | 0.211
70 | ATCACCAT | 0.0725
71 | CAACGGGG | -0.0873
72 | CCGTCAAG | -0.0183
73 | GTATCGAC | 0.156
74 | ATTCACCG | 0.039
75 | CATTTAAC | 0.103
76 | CTCGCCAC | -0.0198
77 | CCCAAGGA | -0.143
78 | AACCATGT | 0.0509
79 | GCAACACA | 0.129
80 | ACCGAATG | -0.0107
81 | ACCTCTGA | -0.166
82 | GAGAGGGC | -0.361
83 | AAACGCCG | 0.168
84 | AGTCTAAC | -0.148
85 | TGGTAACA | -0.0107
86 | CTCAGAGC | -0.153
